No constants are given. Whether binding was seen depends on the method and setting. In cells and extracts the contact can be indirect. Binding can be weak; no strength is given.
Target: T1, P2 × 7R (rat (endogenous in amygdala tissue)) (UniProt Q64663)
T1 sequence: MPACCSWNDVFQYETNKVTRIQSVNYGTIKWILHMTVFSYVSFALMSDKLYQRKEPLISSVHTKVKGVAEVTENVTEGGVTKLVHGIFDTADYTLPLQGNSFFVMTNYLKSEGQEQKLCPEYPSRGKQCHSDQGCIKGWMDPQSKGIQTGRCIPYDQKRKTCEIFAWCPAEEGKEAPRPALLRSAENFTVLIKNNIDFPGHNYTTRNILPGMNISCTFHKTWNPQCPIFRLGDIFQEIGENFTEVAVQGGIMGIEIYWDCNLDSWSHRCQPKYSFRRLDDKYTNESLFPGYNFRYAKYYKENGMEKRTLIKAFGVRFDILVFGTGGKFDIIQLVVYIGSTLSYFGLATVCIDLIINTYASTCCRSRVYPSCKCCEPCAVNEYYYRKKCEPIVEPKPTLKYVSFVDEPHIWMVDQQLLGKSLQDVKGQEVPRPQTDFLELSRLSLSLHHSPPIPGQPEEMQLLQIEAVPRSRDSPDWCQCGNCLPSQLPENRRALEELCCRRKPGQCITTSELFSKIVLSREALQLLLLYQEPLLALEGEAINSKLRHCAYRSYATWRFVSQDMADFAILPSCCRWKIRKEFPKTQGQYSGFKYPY
Test: co-IP; rat amygdala tissue lysate (1 mM EDTA, 150 mM NaCl, 20 mM Tris pH 8.0, 10% glycerol); precipitated with anti-P2 × 7R antibody or IgG and Protein A/G-Sepharose beads at 4 °C; blots for P2 × 7R and integrin β3 (legend: integrin αv too); rats of the Sham, NP, NP + pseudostimulation and NP + rTMS …

- binding: binds
Substance: integrin αvβ3 (rat (endogenous in amygdala tissue)) (complex)

Reference: PMC11496354
